Record: PubChem BioAssay AID1259254 (NCATS, 2017)

Aim: 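Finding genes that stop cells copying their DNA twice in one cycle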 (primary screen)
Cell system: human HCT116 colorectal cancer cells
Reagent: single siRNA against human genes
Duration: 3 days
Detection: 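Imaged Hoechst DNA stain sorts each cell into a cycle phase by DNA amount; per plate, G2 fraction set to 0% for non-targeting and 100% for GMNN siRNA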
Scale: G2 robust z-score and G2 cells, % of GMNN control: higher = more G2 cells, more excess DNA replication; raw share of cells in G2: higher = larger share of cells with G2 DNA content
Rule for the call: 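An siRNA counts as active if its G2 robust z-score lies at least 5 MADs above the screen median; here such calls match roughly 38% of GMNN control or more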
This is a random part of about 59,000 deposited reagents. About 1,550 of them (2.6%) were called active. 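G2 share is only a proxy for re-replication; each gene was hit by three separate siRNAs, and active genes were retested.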 The raw values are shown without normalisation. Reagents against one gene are numbered here. The record does not give: the amount of reagent.

target | reagent | G2 robust z-score | G2 cells, % of GMNN control | raw share of cells in G2 (%) | Call
DOK6 | 1 | -0.341 | 0.566 | 3.78 | inactive
DOK6 | 2 | -0.367 | 0.388 | 3.26 | inactive
DOK6 | 3 | 1.39 | 12.8 | 7.27 | inactive
IYD | 1 | 0.918 | 9.43 | 9.98 | inactive
IYD | 2 | 0.79 | 8.52 | 8.29 | inactive
IYD | 3 | -0.748 | -2.3 | 3.45 | inactive
ARSG | 1 | 0.549 | 6.83 | 9.11 | inactive
ARSG | 2 | 3.96 | 30.8 | 14.5 | inactive
ARSG | 3 | 1.54 | 13.8 | 8.59 | inactive
SPDYE2B | 1 | -0.719 | -2.09 | 2.41 | inactive
SPDYE2B | 2 | 2.05 | 17.4 | 10.3 | inactive
SPDYE2B | 3 | 0.287 | 4.99 | 5.31 | inactive
LMNTD2 | 1 | 3.47 | 27.4 | 11.9 | inactive
LMNTD2 | 2 | 0.12 | 3.81 | 4.96 | inactive
LMNTD2 | 3 | 0.696 | 7.87 | 5.82 | inactive
GLI2 | 1 | -0.751 | -2.32 | 2.54 | inactive
GLI2 | 2 | 1.67 | 14.7 | 11.7 | inactive
GLI2 | 3 | -0.286 | 0.952 | 3.45 | inactive
PCDHB14 | 1 | 0.8 | 8.6 | 7.92 | inactive
PCDHB14 | 2 | 5.83 | 44 | 25.7 | active
PCDHB14 | 3 | -0.286 | 0.954 | 4.78 | inactive
TUSC3 | 1 | -0.482 | -0.421 | 4.1 | inactive
TUSC3 | 2 | -1.05 | -4.41 | 3.74 | inactive
TUSC3 | 3 | -1.04 | -4.38 | 3.03 | inactive
RPGRIP1L | 1 | 0.0633 | 3.41 | 5.7 | inactive
RPGRIP1L | 2 | -0.334 | 0.618 | 4.21 | inactive
RPGRIP1L | 3 | 0.935 | 9.54 | 6.63 | inactive
OR4A47 | 1 | 0.00219 | 2.98 | 4.9 | inactive
OR4A47 | 2 | 0.8 | 8.6 | 6.93 | inactive
OR4A47 | 3 | -0.0957 | 2.29 | 5.74 | inactive
GCAT | 1 | 2.04 | 17.3 | 13.3 | inactive
GCAT | 2 | 0.248 | 4.71 | 5.73 | inactive
GCAT | 3 | -0.719 | -2.09 | 3.15 | inactive
DORIP1 | 1 | 1.08 | 10.6 | 8.34 | inactive
DORIP1 | 2 | 3.41 | 27 | 11.4 | inactive
DORIP1 | 3 | -0.975 | -3.89 | 0.681 | inactive
IL17RC | 1 | 0.154 | 4.05 | 5.46 | inactive
IL17RC | 2 | -0.0624 | 2.53 | 4.21 | inactive
IL17RC | 3 | 0.403 | 5.8 | 4.16 | inactive
OR56A1 | 1 | 0.18 | 4.23 | 5.79 | inactive
OR56A1 | 2 | 0.511 | 6.56 | 5.29 | inactive
OR56A1 | 3 | -0.325 | 0.683 | 2.02 | inactive
BFSP1 | 1 | -0.678 | -1.8 | 4.11 | inactive
BFSP1 | 2 | -1.07 | -4.59 | 3.44 | inactive
BFSP1 | 3 | 1.26 | 11.8 | 8.39 | inactive
KLHL27 | 1 | -1.01 | -4.17 | 2.67 | inactive
KLHL27 | 2 | -0.607 | -1.31 | 5.19 | inactive
KLHL27 | 3 | -0.482 | -0.426 | 4.89 | inactive
UBE2Q2 | 1 | 0.252 | 4.74 | 6.27 | inactive
UBE2Q2 | 2 | 0.205 | 4.41 | 6.86 | inactive
UBE2Q2 | 3 | -0.0334 | 2.73 | 6.94 | inactive
FABP2 | 1 | -0.573 | -1.06 | 4.86 | inactive
FABP2 | 2 | 0.211 | 4.45 | 5.24 | inactive
FABP2 | 3 | 0.0775 | 3.51 | 6.51 | inactive
AP1M2 | 1 | 0.551 | 6.85 | 5.8 | inactive
AP1M2 | 2 | -1.06 | -4.49 | 3.99 | inactive
AP1M2 | 3 | 3.05 | 24.4 | 13.6 | inactive
SNTB2 | 1 | 1.29 | 12 | 8.67 | inactive
SNTB2 | 2 | 3.43 | 27.1 | 12.9 | inactive
SNTB2 | 3 | 2.04 | 17.3 | 11.5 | inactive
GGTLC2 | 1 | 0.472 | 6.29 | 8.25 | inactive
GGTLC2 | 2 | -0.0957 | 2.29 | 5.23 | inactive
GGTLC2 | 3 | -0.648 | -1.59 | 3.67 | inactive
ACTR3C | 1 | -0.18 | 1.7 | 4.06 | inactive
ACTR3C | 2 | -0.797 | -2.64 | 2.2 | inactive
ACTR3C | 3 | 0.213 | 4.46 | 4.1 | inactive
MYO5B | 1 | 0.689 | 7.81 | 5.77 | inactive
MYO5B | 2 | -0.763 | -2.4 | 4.43 | inactive
MYO5B | 3 | -0.145 | 1.95 | 6.24 | inactive
MOGAT3 | 1 | -0.482 | -0.426 | 4.79 | inactive
MOGAT3 | 2 | -0.629 | -1.46 | 3.75 | inactive
MOGAT3 | 3 | 0.0617 | 3.4 | 7.37 | inactive
MYL12BP2 | 1 | 3.89 | 30.3 | 14.8 | inactive
MYL12BP2 | 2 | -0.932 | -3.59 | 2.09 | inactive
MYL12BP2 | 3 | 0.213 | 4.46 | 6.64 | inactive
TMEM82 | 1 | -0.597 | -1.23 | 3.35 | inactive
TMEM82 | 2 | -0.253 | 1.19 | 3.92 | inactive
TMEM82 | 3 | 1.26 | 11.8 | 9.7 | inactive
CDR2L | 1 | -0.993 | -4.02 | 2.32 | inactive
CDR2L | 2 | 0.508 | 6.54 | 7.02 | inactive
CDR2L | 3 | -0.32 | 0.717 | 3.48 | inactive
ZFP82 | 1 | -0.443 | -0.152 | 3.04 | inactive
ZFP82 | 2 | 0.777 | 8.44 | 6.09 | inactive
ZFP82 | 3 | 1.29 | 12 | 7.74 | inactive
POC1B | 1 | 0.429 | 5.98 | 5.82 | inactive
POC1B | 2 | 2.42 | 20 | 10.8 | inactive
POC1B | 3 | 0.305 | 5.11 | 4.82 | inactive
